Primary screen of a compound library

Data taken from ChEMBL document CHEMBL3988442, “University of Dundee, Small-Polar-MMV Screening Library” (2021).

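Assay on Mycobacterium tuberculosis, filed only as a heat shock assay from Cornell; the read-out is not stated. The concentration is filed as 10 mM, unlikely as a test dose, so the dose is not known. Higher reads as stronger inhibition (inferred: compounds with an IC50 in retests scored well above the rest). Of about 69,000 compounds tested this way, about 930 (1.4%) reached 50% or more in at least one test.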

Each number is a percent effect as filed. The controls that fix the scale are not given in the record; negative values are as filed. The compounds are a random part of those screened.

SMILES	percent effect
O=C(O)C(F)(F)F.O=C(O)C(F)(F)F.[H][C@]12CCN(c3ncccn3)[C@@]1([H])CC[C@H](COCc1cccnc1)O2	-3.33
COc1ccc(C(C)NCCc2ccc(NC(C)=O)cc2)c(OC)c1 (stereo not given)	1.455
CCCn1ncc(C(=O)NC2CCN(CC3CCCO3)CC2)c1C (stereo not given)	11.02
CC(C)c1noc(CN2CCCN(Cc3cccs3)CC2)n1	14.3
Cc1nc(CN2CCC(C(=O)N(C)C3CCC(C)CC3)CC2)cs1 (stereo not given)	15.74
O=C(O)C(F)(F)F.[H][C@@]12CCN(CC(=O)NC)C[C@]1([H])CN(C(=O)c1ccccc1C)C2	-28
Cc1cnn(CC2CCCN2C(=O)c2cccnc2-n2cncn2)c1 (stereo not given)	-1.397
CCCN(CCO)C(=O)C1CCC(=O)N(Cc2ccc(Cl)cc2)C1 (stereo not given)	10.77
CN(C)[C@@H]1CN(C(=O)c2cc3cccc(F)c3[nH]2)C[C@H]1O	-6.715
CS(=O)(=O)Cc1nc(CNc2ccc(F)c(F)c2)cs1	3.301
Cc1nccc(CNC(=O)NCC(C)Oc2ccccc2F)n1 (stereo not given)	-15.35
CCS(=O)(=O)N1CC(=O)N(CCOc2ccccc2)CC(O)C1 (stereo not given)	-13.04
COc1ccc(CN2CCC3(CC2)CCN(CC2CC2)C3=O)cc1.O=C(O)C(F)(F)F	-24.54
CCS(=O)(=O)c1cccc(C(=O)Nc2cccc3c2C(=O)N(C)C3=O)c1	-6.967
COCc1ccc(C(=O)N2CCc3c(ncnc3N3CCOCC3)C2)o1	-11.83
Cc1nn(C)c(C)c1NC(=O)c1cccc(CN2CC[C@H](O)C2)c1	9.081
CCC(CO)N(Cc1ccsc1)Cc1ccccc1C#N (stereo not given)	-5.761
CCC(CC(=O)Nc1ccc2c(c1)CC(=O)N2)c1ccccc1 (stereo not given)	3.033
CC(C)c1ocnc1C(=O)NC(c1nnc2n1CCNCC2)C(C)C (stereo not given)	10.53
C=C(C)COc1cccc(C(=O)NC(C)c2nnn[nH]2)c1 (stereo not given)	-14.42
CC(C)C(=O)N1CCc2c(CN(C)Cc3ccco3)cncc2C1.Cl.Cl	-25.4
Cc1ccc(S(=O)(=O)CCC(=O)NCc2nnc3n2CCC3)cc1	-3.383
COc1ccc(CCN2CCCC(n3cncn3)C2)cc1 (stereo not given)	-19.42
CC(=O)C1(c2ccccc2)CCN(C(=O)CC2CNCCO2)CC1 (stereo not given)	-41.11
O=C(O)C(F)(F)F.[H][C@]12CCC[C@@]1(COc1ccccn1)CN(C(=O)CN(C)C)C2	-9.493
Clc1cncc(N2CCN(Cc3ccon3)CC2)n1	-21.25
Cc1noc2ncc(S(=O)(=O)N3CCCC(C)(C)CC3)cc12	9.561
CCC(CO)N(Cc1ccsc1)Cc1c(C)nn(C)c1Cl (stereo not given)	-10.53
CC(=O)NCCC(=O)N(C/C=C/c1ccccc1)CCO	-10.35
CC(C)Nc1ccnc(-c2ccnc3c2ccn3C)n1	6.451
O=C(CCCc1cn[nH]c1)N1C[C@@H](CN2CCCC2)C[C@H](CO)C1	-25.85
Cc1cc(C2CCCN2C(=O)NCc2ccccn2)on1 (stereo not given)	4.711
CC(=O)NCCCSC1CCCN(c2ccccc2F)C1=O (stereo not given)	-19.32
COC(=O)CCNC(=O)c1coc(COc2ccc(F)cc2)n1	10.96
COCCNc1cc(-c2ccccc2C(=O)O)c2cc[nH]c2n1	-18.25
Cc1nc(NC(=O)C(C)N2CCN(c3cnccn3)CC2)sc1C (stereo not given)	24.86
O=C(O)C(F)(F)F.[H][C@@]12CCN(c3cccnc3)C[C@]1([H])CN(C(=O)C1CCCC1)C2	-6.215
Cc1occc1CNC(=O)N(CCCO)C1CCc2ccccc21 (stereo not given)	-6.456
O=C(NC1CCN(c2ccc(-c3ccccc3F)nn2)C1)c1cc[nH]n1 (stereo not given)	-8.111
COc1cccc(N2CCC(CNC(=O)CN3CSCC3=O)C2)c1 (stereo not given)	6.548
CCOC(C)c1nccn1CC(=O)Nc1cc(C)on1 (stereo not given)	3.205
Cc1cccc(CC(=O)N2CCCC(c3n[nH]c4nccnc34)C2)c1 (stereo not given)	-20.07
CC(O)CN1CCC(=O)N(Cc2ccccc2)Cc2ccccc21 (stereo not given)	-8.912
O=C(Cc1cccnc1)N1CCC2(CCN(C3CCOC3)CC2)C1 (stereo not given)	-54.82
CCOc1cc(C(=O)N2CCN(CC)CC2)cc2occc12	-0.3042
Cc1cs/c(=N/C(=O)c2csc(NCC(C)C)n2)[nH]1	102.2
O=C(O)C(F)(F)F.O=C(O)C(F)(F)F.[H][C@@]12C[C@H](C(=O)NCC3CC3)N(C)[C@]1([H])CN(Cc1c(C)noc1C)C2	0.6153
CCc1cnc(N)nc1NCCc1ccc(OC)cc1OC	-20.42
COc1ccc(F)c(CN2CCCC(c3cc(O)nc(C)n3)C2)c1 (stereo not given)	4.844
COc1ccccc1C(C)CC(=O)N1CCN(S(N)(=O)=O)CC1 (stereo not given)	9.993
COc1c(CNCc2ccc(N3CCOCC3)cc2)c(C)nn1C	5.603
CC(C)n1nc(CNc2ncccn2)c2c1CN(C1CCOCC1)CC2.O=C(O)C(F)(F)F	-13.15
Cn1cnnc1C1CCCN1C(=O)Nc1cccc(OC(F)F)c1 (stereo not given)	-6.848
CN1CC2(CCN(Cc3cccc(C#N)c3)CC2)CC1=O	-3.441
Cc1nccc(CNS(=O)(=O)N2CCCC2c2ccc(C)o2)n1 (stereo not given)	8.647
O=C1N(CCCc2ccccc2)CCCC1(O)CN1CCC(CO)CC1 (stereo not given)	14.84
Cc1noc(CCCC(=O)N2CSCC2C(=O)NCC2CC2)n1 (stereo not given)	6.702
CCOCCN1CCN(CC(=O)NC2(C#N)CCCC2)CC1C (stereo not given)	-35.8
Cc1nc(C(=O)N2CCCN(Cc3cnn(C)c3)CC2)ccc1C#N	6.482
Cc1ccc(C(=O)N2CCCC2c2nnc3n2CCCCC3)o1 (stereo not given)	23.6
CCc1nnc(CN(CC)C(=O)C2CC(=O)N(Cc3cccnc3)C2)o1 (stereo not given)	13.38
CN(C)C(=O)NC1COC2(CCN(S(=O)(=O)c3ccccc3)CC2)C1 (stereo not given)	-1.912
Cc1ccccc1S(=O)(=O)N1CCC(c2[nH]ncc2C)C1 (stereo not given)	-29.31
CC(C)CN1C(=O)C2(CCCC2)NC1c1cccnc1 (stereo not given)	-19.47
CCN1CCN(C(=O)COCc2nc(-c3ccncc3)no2)CC1	-1.911
CCCc1nnc(N2CCC(C3CCN(C)CC3)CC2)o1	-22.14
Cc1nn(C)c2nc(N(C)CCN(C)C3CCCC3)sc12	-19.43
CS(=O)(=O)NCC1CCCN(C(=O)Nc2cccc3ccccc23)C1 (stereo not given)	-0.8607
Cc1ccc(C2CSCCN2C(=O)c2ccncc2)cc1 (stereo not given)	11.51
O=C(O)c1nnn(-c2cccc(C(F)(F)F)c2)c1-c1ccncc1	-4.875
CCc1nc(CN2CCCC(N(C)CCn3cccn3)C2)no1 (stereo not given)	-10.42
COc1ccc(/C=C/CN2CCC3(C2)CN(C)C(=O)O3)cc1 (stereo not given)	-8.142
CC(C)c1nc(CN2CCOC(Cn3cncn3)C2)cs1 (stereo not given)	-7.413
Cc1noc(C)c1CN1CCC[C@]2(C[C@@H](Oc3ccccn3)CO2)C1.O=C(O)C(F)(F)F.O=C(O)C(F)(F)F	-20.25
Cc1nc(-n2nc(C3CC3)cc2NC(=O)C(C)C)[nH]c(=O)c1C	96.45
O=C1CCC(=O)N1Cc1ccc(C(=O)N2CCCC2c2cccs2)cc1 (stereo not given)	2.996
O=C(NC1CCCC1)c1cc(Sc2ncccn2)ccn1	30.58
Cc1nc(CNC(=O)NCCC2=CCCC2)oc1C	-6.579
Cn1cnnc1CC1CCN(Cc2nn(C)c3cccc(Cl)c23)CC1	-21.73
O=c1c2cccc(F)c2ncn1CCN1CCNCC1	-23.86
O=S(=O)(c1cccnc1)N1CCN(Cc2nc(-c3cccs3)cs2)CC1	-24.17
CCOCC(O)CN1CCN(C(=O)c2cc(F)cc(F)c2)CC1 (stereo not given)	0.01873
COC(=O)c1cccc(NC(=O)CCn2nc(-c3cccs3)oc2=O)c1	25.05
Cc1cccc(OCCC(=O)N2CCN(S(=O)(=O)N(C)C)CC2)c1C	6.029
Cc1cccc(C)c1OC1CN(C(=O)C2CCCN(C(=O)N(C)C)C2)C1 (stereo not given)	17.67
CCn1cc(S(=O)(=O)NC2CCCN(CC3CCCCC3)C2)cn1 (stereo not given)	-12.58
CNC(=O)c1cc2c(nc1NCC(C)C)CCN(S(C)(=O)=O)CC2	-2.599
CC(C)CNC(=O)CNC(=O)Nc1cccc(Cl)c1-n1cccn1	2.646
[H][C@@]12CCN(Cc3ccsc3)[C@]1([H])CC[C@H](C(=O)NC1CC1)O2	14.02
CC(C)N1CC(C(=O)N2CCC(Oc3ccccc3Cl)CC2)CC1=O (stereo not given)	-24.8
Cc1nn(C)c(C)c1C1COCCN1C(=O)CCc1ccccc1 (stereo not given)	-2.104
Cc1ccc(CNC(=O)c2ccc(CNS(C)(=O)=O)o2)cc1F	-13.82
Cc1cc(C)nc(NC(C)Cc2cnccn2)n1 (stereo not given)	-1.113
[H][C@@]12CN(CCOC)C[C@]1([H])[C@H](OC)CCN2C(=O)c1cccc(OC)c1	-4.012
CC(C)N1CCOCC2(CCCN(C(=O)c3cn(C)cn3)C2)C1.O=C(O)C(F)(F)F (stereo not given)	-5.466

7 of the entries, repeated:

| SMILES | percent effect |
|---|---|
| `COC(=O)CCNC(=O)c1coc(COc2ccc(F)cc2)n1` | 10.96 |
| `CC(C)Nc1ccnc(-c2ccnc3c2ccn3C)n1` | 6.451 |
| `CC(C)CNC(=O)CNC(=O)Nc1cccc(Cl)c1-n1cccn1` | 2.646 |
| `Cc1cccc(OCCC(=O)N2CCN(S(=O)(=O)N(C)C)CC2)c1C` | 6.029 |
| `COc1c(CNCc2ccc(N3CCOCC3)cc2)c(C)nn1C` | 5.603 |
| `COc1ccccc1C(C)CC(=O)N1CCN(S(N)(=O)=O)CC1` (stereo not given) | 9.993 |
| `CC(C)C(=O)N1CCc2c(CN(C)Cc3ccco3)cncc2C1.Cl.Cl` | -25.4 |